Changes are numbered by the printed parent chain. No constants are given. Whether binding was seen depends on the method and setting. In cells and extracts the contact can be indirect. Some entries that bind do so weakly or less than the wild type. For part of these data: Tags and fused reporters may be left off the sequences shown.
Experiments:
[1] = biological target: T1, Flag-USP13 (WT), expressed in NIH/3T3 cells (not stated (human or mouse cDNA cloned)) (UniProt Q5BKP2); test: co-IP; Figure S4H (legend not shown): USP13 with GRP78 WT or K327R from plasmids; cells and antibodies not stated
T1 sequence: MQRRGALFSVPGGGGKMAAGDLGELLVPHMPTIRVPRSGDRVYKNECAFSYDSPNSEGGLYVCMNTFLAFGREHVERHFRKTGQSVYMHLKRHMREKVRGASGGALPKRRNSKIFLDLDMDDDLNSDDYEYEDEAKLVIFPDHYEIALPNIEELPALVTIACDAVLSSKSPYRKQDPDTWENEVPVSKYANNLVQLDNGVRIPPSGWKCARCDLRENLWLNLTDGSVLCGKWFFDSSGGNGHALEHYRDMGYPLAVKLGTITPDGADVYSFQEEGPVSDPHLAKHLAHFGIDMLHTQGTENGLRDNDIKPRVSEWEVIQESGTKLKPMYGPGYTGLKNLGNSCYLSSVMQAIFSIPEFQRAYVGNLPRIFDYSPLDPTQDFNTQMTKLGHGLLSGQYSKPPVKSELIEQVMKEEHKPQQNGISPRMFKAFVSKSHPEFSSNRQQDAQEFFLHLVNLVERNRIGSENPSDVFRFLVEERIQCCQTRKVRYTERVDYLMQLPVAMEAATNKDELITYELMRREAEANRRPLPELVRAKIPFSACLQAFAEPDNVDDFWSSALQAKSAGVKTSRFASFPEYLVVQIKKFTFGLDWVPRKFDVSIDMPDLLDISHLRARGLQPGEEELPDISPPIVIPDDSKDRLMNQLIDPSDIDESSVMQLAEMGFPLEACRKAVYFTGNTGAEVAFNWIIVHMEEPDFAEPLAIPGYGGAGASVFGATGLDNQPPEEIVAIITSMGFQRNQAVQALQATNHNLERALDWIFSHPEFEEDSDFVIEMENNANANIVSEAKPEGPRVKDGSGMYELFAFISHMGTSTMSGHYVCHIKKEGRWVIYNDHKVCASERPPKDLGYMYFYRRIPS

The chains behind the UniProt entries cited, without tags or fusion partners. Where a name states a change or a piece, a line headed by the entry shows the natural chain unless it says otherwise. A line that says so, or that is headed by a name, gives the form on record, which may keep a tag or linker. Residues count along the entry.
GRP78, endogenous in mouse colon tissue (P20029, residues 20-655): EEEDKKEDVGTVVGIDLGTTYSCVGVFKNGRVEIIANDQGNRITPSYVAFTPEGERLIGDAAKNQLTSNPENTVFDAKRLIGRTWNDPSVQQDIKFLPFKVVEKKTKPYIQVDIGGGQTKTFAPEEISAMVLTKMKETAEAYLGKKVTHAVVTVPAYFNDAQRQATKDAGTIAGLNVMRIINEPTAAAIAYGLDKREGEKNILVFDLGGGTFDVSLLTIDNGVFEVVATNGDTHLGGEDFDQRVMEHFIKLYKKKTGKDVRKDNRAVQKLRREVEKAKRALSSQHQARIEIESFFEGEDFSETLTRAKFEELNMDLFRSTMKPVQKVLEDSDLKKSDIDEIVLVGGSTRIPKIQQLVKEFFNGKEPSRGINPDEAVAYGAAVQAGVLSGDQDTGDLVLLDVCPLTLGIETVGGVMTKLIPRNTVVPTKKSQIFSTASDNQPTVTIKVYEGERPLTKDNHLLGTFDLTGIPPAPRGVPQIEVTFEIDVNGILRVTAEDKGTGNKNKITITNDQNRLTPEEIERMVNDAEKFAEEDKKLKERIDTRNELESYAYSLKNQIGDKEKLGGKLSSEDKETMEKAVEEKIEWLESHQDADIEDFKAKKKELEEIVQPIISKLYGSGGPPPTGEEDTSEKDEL
His-GRP78-K327R (mouse) (P20029, form named): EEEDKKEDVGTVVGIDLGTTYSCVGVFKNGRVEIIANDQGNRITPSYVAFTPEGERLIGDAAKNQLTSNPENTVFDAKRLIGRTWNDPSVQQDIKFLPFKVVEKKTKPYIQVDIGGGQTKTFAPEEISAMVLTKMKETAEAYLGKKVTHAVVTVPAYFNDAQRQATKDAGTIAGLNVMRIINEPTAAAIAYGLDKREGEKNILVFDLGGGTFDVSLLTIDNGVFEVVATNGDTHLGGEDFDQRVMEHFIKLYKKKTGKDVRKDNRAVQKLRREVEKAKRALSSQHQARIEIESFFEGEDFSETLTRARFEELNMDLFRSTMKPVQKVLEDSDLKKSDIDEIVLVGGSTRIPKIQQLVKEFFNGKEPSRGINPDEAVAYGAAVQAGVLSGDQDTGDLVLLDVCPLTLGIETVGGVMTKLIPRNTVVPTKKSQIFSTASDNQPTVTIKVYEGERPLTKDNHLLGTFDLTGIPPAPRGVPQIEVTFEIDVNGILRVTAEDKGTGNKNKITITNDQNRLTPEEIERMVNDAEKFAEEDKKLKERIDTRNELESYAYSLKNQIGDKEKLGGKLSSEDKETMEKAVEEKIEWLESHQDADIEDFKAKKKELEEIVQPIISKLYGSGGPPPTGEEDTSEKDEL
UniProt P11021, residues 19-654: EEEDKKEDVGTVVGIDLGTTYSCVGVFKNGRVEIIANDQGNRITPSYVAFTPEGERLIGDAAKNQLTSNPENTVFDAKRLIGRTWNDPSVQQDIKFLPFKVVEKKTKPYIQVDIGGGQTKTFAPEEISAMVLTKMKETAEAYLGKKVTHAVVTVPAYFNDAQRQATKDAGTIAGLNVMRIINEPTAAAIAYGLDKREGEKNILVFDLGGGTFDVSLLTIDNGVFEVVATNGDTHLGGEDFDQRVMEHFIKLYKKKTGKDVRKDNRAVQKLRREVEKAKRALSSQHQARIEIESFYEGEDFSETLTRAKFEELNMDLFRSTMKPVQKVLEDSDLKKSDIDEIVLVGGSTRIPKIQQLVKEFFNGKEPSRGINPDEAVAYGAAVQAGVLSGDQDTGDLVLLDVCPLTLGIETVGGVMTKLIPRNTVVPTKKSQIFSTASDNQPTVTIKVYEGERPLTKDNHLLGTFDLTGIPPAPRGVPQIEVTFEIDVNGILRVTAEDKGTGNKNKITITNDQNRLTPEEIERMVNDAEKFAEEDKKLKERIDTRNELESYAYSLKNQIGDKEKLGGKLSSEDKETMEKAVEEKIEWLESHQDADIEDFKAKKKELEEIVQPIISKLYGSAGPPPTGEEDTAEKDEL

[2] = biological target: T1, Flag-USP13 (WT), expressed in NIH/3T3 cells (not stated (human or mouse cDNA cloned)); test: co-IP; lysates of NIH/3T3 cells co-transfected with Flag-USP13 (WT) or USP13 (C343A) and His-GRP78; primary antibody overnight at 4 °C, protein A+G agarose beads, immunoblot
[3] = biological target: T2, USP13-C343A (mouse) (mouse) (UniProt Q5BKP2); test: as above
T2 sequence: T1 sequence with C343A

[4] = biological target: T3, USP13, endogenous in mouse colon tissue (mouse (endogenous in colon tissue)) (UniProt Q5BKP2); test: co-IP; endogenous proteins in lysates of colon tissues from DSS-treated mice; primary antibody overnight at 4 °C, protein A+G agarose beads, immunoblot
T3 sequence: T1 sequence

[5] = biological target: T4, USP13, endogenous in NCM460 cells (human (endogenous in NCM460)) (UniProt Q92995); test: co-IP; endogenous proteins in lysates of LPS-stimulated or tunicamycin-stimulated NCM460 cells; primary antibody overnight at 4 °C, protein A+G agarose beads, immunoblot
T4 sequence: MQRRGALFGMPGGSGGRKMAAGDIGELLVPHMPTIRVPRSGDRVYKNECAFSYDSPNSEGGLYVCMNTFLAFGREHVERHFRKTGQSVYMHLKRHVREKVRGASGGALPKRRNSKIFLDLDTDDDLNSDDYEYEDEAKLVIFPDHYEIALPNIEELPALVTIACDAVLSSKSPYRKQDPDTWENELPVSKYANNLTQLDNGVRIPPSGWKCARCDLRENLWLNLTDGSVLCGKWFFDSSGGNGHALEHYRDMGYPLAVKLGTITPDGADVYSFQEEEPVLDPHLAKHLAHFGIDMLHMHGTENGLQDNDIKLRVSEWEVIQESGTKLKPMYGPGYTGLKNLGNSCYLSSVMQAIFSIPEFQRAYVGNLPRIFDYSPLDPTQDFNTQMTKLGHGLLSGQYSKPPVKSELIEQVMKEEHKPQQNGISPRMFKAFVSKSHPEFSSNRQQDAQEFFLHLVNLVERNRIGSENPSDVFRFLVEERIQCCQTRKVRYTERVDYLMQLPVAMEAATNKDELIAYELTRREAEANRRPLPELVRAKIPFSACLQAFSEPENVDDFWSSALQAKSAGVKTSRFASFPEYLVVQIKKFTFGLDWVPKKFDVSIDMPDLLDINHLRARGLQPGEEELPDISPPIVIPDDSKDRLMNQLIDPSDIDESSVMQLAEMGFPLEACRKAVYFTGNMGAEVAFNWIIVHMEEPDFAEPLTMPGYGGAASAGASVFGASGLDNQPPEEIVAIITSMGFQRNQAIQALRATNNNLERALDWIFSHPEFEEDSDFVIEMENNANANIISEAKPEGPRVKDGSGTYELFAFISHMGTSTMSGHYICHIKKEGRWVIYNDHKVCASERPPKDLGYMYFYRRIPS

Q: For “His-GRP78 (mouse) (from UniProt P20029 20-655)”, which binding [1] is on record?
A: binds

Q: What about the binding [2] of the same substance?
A: binds

Q: What about the binding [3] of the same substance?
A: binds

Q: How did the binding [1] turn out when “His-GRP78-K327R (mouse) (from UniProt P20029 20-655)” was run?
A: binds

Q: How did the binding [4] turn out when “GRP78, endogenous in mouse colon tissue (from UniProt P20029 20-655)” was run?
A: binds

Q: Which binding [5] does the source give for “glucose-regulated protein 78 (GRP78), endogenous in NCM460 cells (from UniProt P11021 19-654)” here?
A: binds

Source: paper PMC12520541
